Values joined by “and” are separate entries in the source; they are usually repeats but may differ in a detail not shown here. Equal values may be shown once. The whole screen tested about 300,000 compounds, of which about 5,400 (1.8%) were called active. Inconclusive means that the source gave no clear call. Such entries were picked first, then a sample of the others. Calls come from the whole dose curve; tested in HEK293 cells. A potency beside an inconclusive call is a rough fit, not a confirmed value.
Assay: qHTS for inhibitors of binding or entry into cells for Marburg Virus
Details: Marburg virus pseudotyped entry inhibition, cell reporter; activity change, negative = inhibition: at 37.8 µM (top of the series) unless noted
% is set by controls: 0 for no effect and ±100 for the full control effect; potency is the fitted concentration of half-maximal effect.

SMILES	Potency	activity change, negative = inhibition
COc1cccc(OCCCCSc2ncccn2)c1	inconclusive: 1 µM [activator, full curve, poor fit]	
Cc1ccc(C)c(N2CCN(C(=S)Nc3ccc4nc(N5CCOCC5)cc(C)c4c3)CC2)c1	inconclusive: 25.1 µM [inhibitor, single point]	
COc1ccc(C(NC(=O)/C=C/c2ccco2)c2ccc(OC)c(OC)c2)cc1OC	inactive	
Cc1nn(-c2ccccc2)c(C)c1/C=N/NC(=O)c1cc(C(C)(C)C)[nH]n1	active: 4.47 µM	
O=C(Nc1ccccc1F)N(CCCN1CCOCC1)Cc1cc2cc3c(cc2[nH]c1=O)OCCO3	inconclusive: 15.8 µM [inhibitor, partial curve, poor fit]	
Cc1cc(S(=O)(=O)NCCCn2ccnc2)c(C)cc1Cl	inactive	
COc1ccc2oc(C(=O)Nc3ccccn3)c(C)c2c1	inconclusive: 8.91 µM [inhibitor, partial curve, poor fit]	
CCC1CCCCN1S(=O)(=O)c1ccc(S(=O)(=O)N(Cc2ccccn2)CC2CCCO2)cc1 (stereo not drawn)	inconclusive: 35.5 µM [inhibitor, single point]	
CCc1ccc(C(=O)c2cn(CC(=O)Nc3cccc(OC)c3)c3cc4c(cc3c2=O)OCO4)cc1	inconclusive: 8.91 µM [inhibitor, partial curve, poor fit]	
COc1cc(/C=C2/SC(=Nc3ccc(O)cc3)NC2=O)cc(OC)c1O	inconclusive: 2.24 µM [inhibitor, partial curve, poor fit]	
Cc1ccc(-c2cc3ncc4c(n3n2)-c2cc(F)ccc2OC4)cc1	inconclusive: 6.31 µM [activator, single point]	
COC(=O)C(C)Oc1ccc2c(c1)O/C(=C\c1ccco1)C2=O (stereo not drawn)	inconclusive: 11.2 µM [activator, single point]	
NS(=O)(=O)c1ccc(NC(=O)Nc2cccc(Cl)c2)cc1	inactive	
Cc1ccc(-c2nnc(NC3CCCC3)s2)cc1	inconclusive: 1.58 µM [activator, partial curve]	
O=C(Cn1c2ccccc2c(=O)c2ccccc21)N/N=C/c1cc([N+](=O)[O-])ccc1N1CCCCCC1	inconclusive: 6.31 µM [inhibitor, single point]	
Cc1ccc(S(=O)(=O)CC(=O)N2CCN(c3ccc([N+](=O)[O-])cc3)CC2)cc1	inconclusive: 20 µM [inhibitor, partial curve, poor fit]	
COc1ccc(C)cc1NC(=O)C1CCN(S(=O)(=O)c2cc(Br)cc3c2N(C(C)=O)CC3)CC1	inactive	
CC1(C)COC(c2coc3ccccc3c2=O)OC1	inconclusive: 15.8 µM [activator, partial curve, poor fit]	
COC(=O)c1cccc(S(=O)(=O)N(Cc2ccco2)Cc2cc3cc(OC)ccc3[nH]c2=O)c1	inactive	
O=C(Nc1ccc(N2CCOCC2)c(S(=O)(=O)Nc2ccccc2Cl)c1)c1ccc(=O)[nH]n1	inconclusive: 5.62 µM [activator, single point]	
COc1ccc(-c2cc(C(=O)NC3=NCCS3)c3ccccc3n2)cc1OC	inconclusive: 11.2 µM [inhibitor, partial curve, poor fit]	
COc1ccc2c(c1)c(C(=O)N/N=C/c1cccc(O)c1)c(C)n2C	inactive	
O=C1CCC=C1[C@@H](O)CCc1ccccc1	inactive	

SMILES	Potency	activity change, negative = inhibition
O=C(N=Nc1c(O)[nH]c2ccc(Br)cc12)c1ccccc1-n1cccc1	inconclusive: 1.64 µM [inhibitor, partial curve, poor fit]	
CCN(CC)CCN1C(=O)c2ccccc2N[C@@H]1c1cc(OC)c(OC)c(OC)c1	inconclusive: 16.4 µM [inhibitor, single point]	
COc1ccc(Cl)cc1C=CC=Nc1ccc(S(N)(=O)=O)cc1	inconclusive: 11.2 µM [inhibitor, single point]	
CCOc1ccccc1-n1c(SCC(=O)Nc2ccccc2C(=O)O)nc2ccccc2c1=O	inconclusive: 1.26 µM [activator, partial curve, poor fit]	
Cc1ccc(Nc2c(-c3ccc(C)s3)nc3ccccn23)cc1	inconclusive: 35.5 µM [activator, single point]	
CN(C)CCCN1C(=O)c2oc3ccc(Cl)cc3c(=O)c2C1c1cccnc1 (stereo not drawn)	inactive	
CCC(=O)NC(=S)Nc1cccc(NC(=O)CC)c1	inactive	
O=C(Cc1ccc(F)cc1)Nc1ccc(S(=O)(=O)N2CCCC2)cc1	inconclusive: 35.5 µM [activator, partial curve, poor fit]	
O=C(CCNC(=O)c1ccc([N+](=O)[O-])cc1)NC1CCCc2ccccc21 (stereo not drawn)	active: 2 µM	
CCOC(=O)C(C)(C)N(Cc1ccccc1C)S(=O)(=O)c1ccc(Cl)c([N+](=O)[O-])c1	inconclusive: 0.282 µM [activator, full curve, poor fit]	
COc1cc(C(=O)NCCOc2ccccc2)cc(OC)c1OC	inactive	
CCOc1ccc(CCNC(=O)c2oc(=O)c3ccccc3c2-c2ccc(C)cc2)cc1OCC	inactive	
O=C(CN1CCOCC1)N/N=C/c1c(O)ccc2ccccc12	inconclusive: 11.2 µM [inhibitor, partial curve, poor fit]	
Cc1ccc(/C=C/C(=O)O)cc1S(=O)(=O)NCCCC(=O)O	inactive	
O=C(NC1CCCCC1)c1ccc(OC2CCN(Cc3ccccn3)CC2)cc1	inactive	
CCOC(=O)c1csc(CCNC(=O)c2oc3c(Cl)cc(C)cc3c2C)n1	inconclusive: 0.794 µM [activator, full curve]	
Cc1nn(C)cc1CN(C)C(=O)c1cc(-c2ccccc2)nc2ccc(Br)cc12	inconclusive: 20 µM [inhibitor, single point] and inconclusive: 11.2 µM [inhibitor, partial curve, poor fit]	
O=C(Cn1c(=O)oc2cccnc21)Nc1ccccc1Oc1ccc(Cl)cc1Cl	inconclusive: 5.62 µM [activator, partial curve, poor fit]	
CC1(c2ccc(Cl)cc2)NC(=O)CS1 (stereo not drawn)	inactive	
CC(C)CN1C(=O)NC(NC(=O)c2ccco2)(C(F)(F)F)C1=O (stereo not drawn)	inactive	
O=C(COc1ccc(F)cc1)Nc1nc(-c2ccccn2)cs1	inactive	
O=C(NCCCN1CCCCCC1)C1CC(=O)N(CCc2ccccc2)C1 (stereo not drawn)	inactive	
CCOC(=O)/C(C#N)=C/c1cc(C)n(-c2ccc(C)cc2)c1C	inconclusive: 28.2 µM [inhibitor, single point]	

Look-ups from the results shown.
In Potency, CCC1CCCCN1S(=O)(=O)c1ccc(S(=O)(=O)N(Cc2ccccn2)CC2CCCO2)cc1 (stereo not drawn) is entered as inconclusive: 35.5 µM [inhibitor, single point]
In Potency, CC1(C)COC(c2coc3ccccc3c2=O)OC1 is entered as inconclusive: 15.8 µM [activator, partial curve, poor fit]
In Potency, COc1cc(C(=O)NCCOc2ccccc2)cc(OC)c1OC is entered as inactive
In Potency, Cc1ccc(/C=C/C(=O)O)cc1S(=O)(=O)NCCCC(=O)O is entered as inactive
In Potency, CC(C)CN1C(=O)NC(NC(=O)c2ccco2)(C(F)(F)F)C1=O (stereo not drawn) is entered as inactive

Later entries:

SMILES	Potency	activity change, negative = inhibition
N#Cc1ccc(OCC(O)CS(=O)(=O)c2ccccc2)cc1 (stereo not drawn)	inactive	
CCCCOC(=O)c1ccc(N)cc1	inactive	
COC(=O)c1ccc(CN2C(=O)NC3(CCCCC3)C2=O)cc1	inconclusive: 10 µM [activator, partial curve, poor fit]	
S=c1nc[nH]c2c1ncn2C1CCCO1 (stereo not drawn)	inconclusive: 35.5 µM [inhibitor, single point]	
CCN(CC)C(C(=O)Nc1ccc(C(C)C)cc1)c1ccc2c(c1)OCO2 (stereo not drawn)	inconclusive: 29.1 µM [inhibitor, single point]	
CC1Cc2ccccc2N1C(=O)CSc1nc2ccc(NC(=O)COc3ccccc3)cc2s1 (stereo not drawn)	inconclusive: 35.5 µM [inhibitor, single point]	
COCC(C)NC(=O)CCS(=O)(=O)c1nc(-c2ccc(OC)cc2)cc(C(F)(F)F)n1 (stereo not drawn)	inconclusive: 11.2 µM [inhibitor, partial curve, poor fit]	
CCCCNC(=O)c1ccc2c(=O)n(Cc3ccc(OC)cc3)c(=O)[nH]c2c1	inconclusive: 15.8 µM [activator, single point]	
O=C(/C=C/c1ccco1)Nc1ccc2c(c1)OCO2	inconclusive: 12.6 µM [inhibitor, single point]	
COc1cc(C(=O)Nc2nc(-c3ccc(Cl)cc3)c(C)s2)ccc1OCC(=O)Nc1ccc(F)cc1	inconclusive: 17.8 µM [inhibitor, single point]	
Cc1ccc2cc(/C=N/NC(=O)c3ccccc3O)c(Cl)nc2c1		inconclusive: 21.1% [activator]
CCc1cccc(C)c1NC(=O)Cn1nc(C)n2cccc2c1=O	inconclusive: 35.5 µM [inhibitor, single point]	
COC(=O)c1cc2oc(C)cc2n1CC(=O)Nc1ccc(C(C)C)cc1	inconclusive: 10 µM [inhibitor, partial curve, poor fit]	
O=C1/C(=C\c2cccnc2)CCc2ccccc21	inactive	
COc1ccccc1N1CCN(C(=O)CCCN2C(=O)c3cccc4cccc(c34)C2=O)CC1	inconclusive: 35.5 µM [inhibitor, single point]	
O=C(Nc1c(Cl)cccc1Cl)c1cc(-c2ccco2)on1	inconclusive: 3.55 µM [inhibitor, partial curve, poor fit]	
CC(C)C(NC(=O)c1ccco1)C(=O)NC1CCCCCC1 (stereo not drawn)	inactive	
CC(=O)c1cnc2nc(SCc3ccc(Cl)cc3)nn2c1C	inactive	
CSc1nc(-c2ccccc2)cn1-c1ccc(NC(C)=O)cc1	inconclusive: 0.891 µM [activator, full curve, poor fit]	
CCOC(=O)C1=C(C)N(c2ccccc2)C(=O)/C1=C\c1cccs1	inactive	
C=CCOC(=O)C1=C(C)NC(C)=C(C(=O)OCC=C)C1c1ccc(C)o1	inconclusive: 22.4 µM [inhibitor, single point]	
CCOC(=O)C1=C(CN2CCN(c3ccccc3OC)CC2)NC(=O)NC1c1ccccc1 (stereo not drawn)	inconclusive: 35.5 µM [inhibitor, single point]	
